Results taken from patent publication US20240383964A1, “De Novo Designed alpha(5) beta(1) Integrin selective minibinders” (UNIVERSITY OF WASHINGTON, priority 2023, published 2024).
These are yes or no findings as the source states them, for the method shown. Some results given as binding are weak or reduced against the parent protein; the word gives no strength.

Protein sequences, listed by entry. Tags and fused reporters are not part of them. Lines headed by an entry give the natural chain unless they say otherwise; changes in a name come on top.
UniProt P08648: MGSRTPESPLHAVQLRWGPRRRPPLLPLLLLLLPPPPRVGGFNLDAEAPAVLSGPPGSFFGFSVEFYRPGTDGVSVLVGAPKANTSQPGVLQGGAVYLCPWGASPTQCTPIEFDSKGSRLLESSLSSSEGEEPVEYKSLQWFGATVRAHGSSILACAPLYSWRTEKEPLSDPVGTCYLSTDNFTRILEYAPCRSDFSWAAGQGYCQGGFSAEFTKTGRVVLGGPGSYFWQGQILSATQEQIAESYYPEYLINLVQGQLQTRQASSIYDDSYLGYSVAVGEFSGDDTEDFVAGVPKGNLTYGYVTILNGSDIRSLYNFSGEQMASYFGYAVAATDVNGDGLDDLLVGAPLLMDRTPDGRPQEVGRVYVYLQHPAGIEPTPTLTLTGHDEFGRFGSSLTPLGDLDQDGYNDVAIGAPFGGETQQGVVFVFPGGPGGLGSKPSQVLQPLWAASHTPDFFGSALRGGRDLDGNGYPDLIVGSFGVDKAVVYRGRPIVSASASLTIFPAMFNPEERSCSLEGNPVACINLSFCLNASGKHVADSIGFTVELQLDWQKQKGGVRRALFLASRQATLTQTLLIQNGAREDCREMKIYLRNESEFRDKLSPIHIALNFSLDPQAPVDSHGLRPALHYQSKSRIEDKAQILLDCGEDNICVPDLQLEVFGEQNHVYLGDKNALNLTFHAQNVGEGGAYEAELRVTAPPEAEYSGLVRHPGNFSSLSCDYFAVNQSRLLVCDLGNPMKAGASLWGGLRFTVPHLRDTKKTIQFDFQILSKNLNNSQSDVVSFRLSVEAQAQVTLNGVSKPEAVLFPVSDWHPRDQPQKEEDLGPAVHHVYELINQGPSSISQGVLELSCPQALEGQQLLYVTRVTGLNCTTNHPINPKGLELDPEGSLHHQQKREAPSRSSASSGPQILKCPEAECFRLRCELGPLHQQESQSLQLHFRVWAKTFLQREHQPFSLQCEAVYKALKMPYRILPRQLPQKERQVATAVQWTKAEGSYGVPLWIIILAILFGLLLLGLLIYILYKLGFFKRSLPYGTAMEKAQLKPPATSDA

Columns and labels:
integrin α5β1 [1] = molecular target: T1, integrin α5β1 (UniProt P08648 42-995; P05556 21-728); assay: BLI, buffer without metal ions, 100 nM integrin
T1 construct: also called alpha(5) beta(1) integrin; a5b1

integrin α5β1 [2] = molecular target: T1, integrin α5β1; assay: BLI, low-pH buffer (pH 5)

B1: xw_a5b1_00179_v4.1 (designed binder)
chain: SELIIHGRGDFPSSELERLRERFERLGIKVRVDHKVLTLIGISEEEAERLARELRKRGIWVEIRK
modifications: N-terminal biotin in the BLI assays
binding (integrin α5β1 [1]): binds | binding (integrin α5β1 [2]): binds
